This is an account of results in EP0659072B1, “PHAR[…] […] STEROIDS” (Pharmacia AB, priority 1993, dated 1995).

Where only a bound is given, the exact number is not on record here.

This data set is described as follows: Quality of castor oil containing emulsions with different steroids (pH, volume distribution, span, storage stability). Type of data set: physicochemical. As to conditions: for D(4:3) / pH / Span: emulsion of the steroid; for pH: heat sterilized; for Span: Malvern Mastersizer; for Storage 5 and 40°C: storage stability of emulsion. On the procedure: In order to determinate the quality of the castor oil containing emulsions with different steroids, the following compositions were prepared:
The steroids were weighed in a 50 ml glass beaker. The castor oil (CO) or a mixture of castor oil and soybeans oil (CO+SBO) in a proportion of 70 : 30 was added to the beaker which was heated and the steroids were dissolved. The phospholipids were added to the oil phase and the agitation continued for another five minutes. This mixture was added to a heated aqueous phase containing water and glycerol and agitated for five minutes. The mixture was thereafter homogenized to an emulsion in a high pressure lab scale homogeniser at the technically highest possible pressure. The resultant emulsions were dispersed and sealed 20 ml glass vials which were heat sterilized. The emulsions were analysed with respect to the appearance, the shaking stability, pH and volume distribution. The span was analysed with a Malvern Mastersizer. The appearance of the droplets larger than 1µm and the average area on a relevant picture and the presence of precipitate were investigated with a microscope. The storage stability at 5 and 40°C was also studied.

For the molecule `CC(=O)[C@H]1CC[C@H]2[C@@H]3CC[C@H]4C[C@H](O)CC[C@]4(C)[C@H]3C(=O)C[C@]12C` [Alfaxalone, 5α-pregnan-3α-ol-11,20-dione, reference compound], for the setting “vehicle CO (castor oil)”, the “D(4:3)” value is reported as 0,83 µm; the pH is 8.9; the Span was determined as 1.85; the “Storage 5 and 40°C” value is more than 4 months. Moreover, under “vehicle CO+SBO (70 : 30)”, the “D(4:3)” value turned out to be 0.58 µm; the Span is reported as 1.61; the “Storage 5 and 40°C” value is given as more than 4 months. Moreover, the pH (vehicle CO+SBO (castor oil and soybean oil 70 : 30)) stood at 8.9.
